Reference: PubChem BioAssay AID188 (DTP/NCI, 2004)
Shown are survivors of the treated group in tumour-free mice. Survivors were counted at the toxicity check, usually on the fifth day, unless a day is given; later deaths do not show. Schedules are NCI's codes, read here as Q, the interval in days (D) or hours (H), X, the number of doses.

Tested on: CD2F1 mice, nontumored, toxicity/survival
Experiment: NCI In Vivo Anticancer Drug Screen. Data for tumor model Nontumored Animals (Toxicity Test) in CD2F1 (CDF1) mice

`OC(CBr)C(O)C(O)C(O)CBr` (centres undefined) was tested. Which survivor count (dose: 8.0 mg/kg/injection, schedule: Q03HX024 (ip), vehicle: Klucel (hydroxypropylcellulose) (HPC)) did it give?
The survivor count was 8 of 8.

What about the survivor count (dose: 16.0 mg/kg/injection, schedule: Q03HX008 (ip), vehicle: Klucel (hydroxypropylcellulose) (HPC)) of the same molecule?
Its survivor count is 8 of 8.

What about the survivor count (dose: 16.0 mg/kg/injection, schedule: Q03HX016 (ip), vehicle: Klucel (hydroxypropylcellulose) (HPC)) of the same molecule?
Its survivor count is 8 of 8.

And the survivor count (dose: 16.0 mg/kg/injection, schedule: Q03HX024 (ip), vehicle: Klucel (hydroxypropylcellulose) (HPC))?
The survivor count was 7 of 8.

What about the survivor count (dose: 32.0 mg/kg/injection, schedule: Q01DX009 (ip), vehicle: Klucel (hydroxypropylcellulose) (HPC)) of the same molecule?
The survivor count was 8 of 8.

What about the survivor count (dose: 32.0 mg/kg/injection, schedule: Q03HX008 (ip), vehicle: Klucel (hydroxypropylcellulose) (HPC)) of the same molecule?
Its survivor count is 8 of 8.

What about the survivor count (dose: 32.0 mg/kg/injection, schedule: Q03HX016 (ip), vehicle: Klucel (hydroxypropylcellulose) (HPC)) of the same molecule?
Its survivor count is 8 of 8.

What about the survivor count (dose: 32.0 mg/kg/injection, schedule: Q03HX024 (ip), vehicle: Klucel (hydroxypropylcellulose) (HPC)) of the same molecule?
The survivor count was 8 of 8.

What about the survivor count (dose: 64.0 mg/kg/injection, schedule: Q01DX009 (ip), vehicle: Klucel (hydroxypropylcellulose) (HPC)) of the same molecule?
Its survivor count is 8 of 8.

What about the survivor count (dose: 64.0 mg/kg/injection, schedule: Q03HX008 (ip), vehicle: Klucel (hydroxypropylcellulose) (HPC)) of the same molecule?
The survivor count was 8 of 8.

What about the survivor count (dose: 64.0 mg/kg/injection, schedule: Q03HX016 (ip), vehicle: Klucel (hydroxypropylcellulose) (HPC)) of the same molecule?
The survivor count was 8 of 8.

And the survivor count (dose: 64.0 mg/kg/injection, schedule: Q03HX024 (ip), vehicle: Klucel (hydroxypropylcellulose) (HPC))?
The survivor count was 8 of 8.

And the survivor count (dose: 64.0 mg/kg/injection, schedule: Q04DX003 (ip), vehicle: Klucel (hydroxypropylcellulose) (HPC))?
The survivor count was 8 of 8.

And the survivor count (dose: 128.0 mg/kg/injection, schedule: Q01DX001 (ip), vehicle: Klucel (hydroxypropylcellulose) (HPC))?
The survivor count was 8 of 8.

What about the survivor count (dose: 128.0 mg/kg/injection, schedule: Q01DX009 (ip), vehicle: Klucel (hydroxypropylcellulose) (HPC)) of the same molecule?
Its survivor count is 8 of 8.

What about the survivor count (dose: 128.0 mg/kg/injection, schedule: Q03HX008 (ip), vehicle: Klucel (hydroxypropylcellulose) (HPC)) of the same molecule?
Its survivor count is 8 of 8.

And the survivor count (dose: 128.0 mg/kg/injection, schedule: Q03HX016 (ip), vehicle: Klucel (hydroxypropylcellulose) (HPC))?
The survivor count was 8 of 8.

What about the survivor count (dose: 128.0 mg/kg/injection, schedule: Q03HX024 (ip), vehicle: Klucel (hydroxypropylcellulose) (HPC)) of the same molecule?
The survivor count was 8 of 8.

What about the survivor count (dose: 128.0 mg/kg/injection, schedule: Q04DX003 (ip), vehicle: Klucel (hydroxypropylcellulose) (HPC)) of the same molecule?
The survivor count was 8 of 8.

What about the survivor count (dose: 128.0 mg/kg/injection, schedule: Q08DX002 (ip), vehicle: Klucel (hydroxypropylcellulose) (HPC)) of the same molecule?
Its survivor count is 8 of 8.

What about the survivor count (dose: 256.0 mg/kg/injection, schedule: Q01DX001 (ip), vehicle: Klucel (hydroxypropylcellulose) (HPC)) of the same molecule?
Its survivor count is 8 of 8.

And the survivor count (dose: 256.0 mg/kg/injection, schedule: Q01DX009 (ip), vehicle: Klucel (hydroxypropylcellulose) (HPC))?
The survivor count was 8 of 8.

And the survivor count (dose: 256.0 mg/kg/injection, schedule: Q03HX008 (ip), vehicle: Klucel (hydroxypropylcellulose) (HPC))?
The survivor count was 8 of 8.

And the survivor count (dose: 256.0 mg/kg/injection, schedule: Q03HX016 (ip), vehicle: Klucel (hydroxypropylcellulose) (HPC))?
The survivor count was 7 of 8.

And the survivor count (dose: 256.0 mg/kg/injection, schedule: Q04DX003 (ip), vehicle: Klucel (hydroxypropylcellulose) (HPC))?
The survivor count was 8 of 8.

What about the survivor count (dose: 256.0 mg/kg/injection, schedule: Q08DX002 (ip), vehicle: Klucel (hydroxypropylcellulose) (HPC)) of the same molecule?
The survivor count was 8 of 8.

And the survivor count (dose: 512.0 mg/kg/injection, schedule: Q01DX001 (ip), vehicle: Klucel (hydroxypropylcellulose) (HPC))?
Its survivor count is 8 of 8.

What about the survivor count (dose: 512.0 mg/kg/injection, schedule: Q01DX009 (ip), vehicle: Klucel (hydroxypropylcellulose) (HPC)) of the same molecule?
Its survivor count is 8 of 8.

And the survivor count (dose: 512.0 mg/kg/injection, schedule: Q04DX003 (ip), vehicle: Klucel (hydroxypropylcellulose) (HPC))?
The survivor count was 8 of 8.

And the survivor count (dose: 512.0 mg/kg/injection, schedule: Q08DX002 (ip), vehicle: Klucel (hydroxypropylcellulose) (HPC))?
The survivor count was 8 of 8.

What about the survivor count (dose: 1024.0 mg/kg/injection, schedule: Q01DX001 (ip), vehicle: Klucel (hydroxypropylcellulose) (HPC)) of the same molecule?
The survivor count was 8 of 8.

What about the survivor count (dose: 1024.0 mg/kg/injection, schedule: Q04DX003 (ip), vehicle: Klucel (hydroxypropylcellulose) (HPC)) of the same molecule?
The survivor count was 8 of 8.

And the survivor count (dose: 1024.0 mg/kg/injection, schedule: Q08DX002 (ip), vehicle: Klucel (hydroxypropylcellulose) (HPC))?
Its survivor count is 8 of 8.

And the survivor count (dose: 2048.0 mg/kg/injection, schedule: Q01DX001 (ip), vehicle: Klucel (hydroxypropylcellulose) (HPC))?
Its survivor count is 7 of 8.

And the survivor count (dose: 2048.0 mg/kg/injection, schedule: Q08DX002 (ip), vehicle: Klucel (hydroxypropylcellulose) (HPC))?
Its survivor count is 7 of 8.

What does the source list for `NC(=O)c1[nH]nc(C2OC(CO)C(O)C2O)c1O` (centres undefined)?
survivor count (dose: 0.25 mg/kg/injection, schedule: Q01DX009 (ip), vehicle: saline): 8 of 8; survivor count (dose: 0.5 mg/kg/injection, schedule: Q01DX009 (ip), vehicle: saline): 8 of 8; survivor count (dose: 0.5 mg/kg/injection, schedule: Q04DX003 (ip), vehicle: saline): 8 of 8; survivor count (dose: 1.0 mg/kg/injection, schedule: Q01DX009 (ip), vehicle: saline): 8 of 8; survivor count (dose: 1.0 mg/kg/injection, schedule: Q04DX003 (ip), vehicle: saline): 8 of 8; survivor count (dose: 2.0 mg/kg/injection, schedule: Q01DX009 (ip), vehicle: saline): 8 of 8; survivor count (dose: 2.0 mg/kg/injection, schedule: Q04DX003 (ip), vehicle: saline): 8 of 8; survivor count (dose: 4.0 mg/kg/injection, schedule: Q01DX009 (ip), vehicle: saline): 8 of 8; survivor count (dose: 4.0 mg/kg/injection, schedule: Q04DX003 (ip), vehicle: saline): 8 of 8; survivor count (dose: 8.0 mg/kg/injection, schedule: Q01DX009 (ip), vehicle: saline): 8 of 8; survivor count (dose: 8.0 mg/kg/injection, schedule: Q04DX003 (ip), vehicle: saline): 8 of 8; survivor count (dose: 16.0 mg/kg/injection, schedule: Q01DX009 (ip), vehicle: saline): 4 of 6; survivor count (dose: 16.0 mg/kg/injection, schedule: Q04DX003 (ip), vehicle: saline): 8 of 8; survivor count (dose: 32.0 mg/kg/injection, schedule: Q04DX003 (ip), vehicle: saline): 8 of 8
